# Data: PubChem BioAssay AID1508600 (Functional Genomics Laboratory (NCATS/FGL), 2020)
# Among all 53,000 sequences or so, about 3,700 (7%) were called active.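 Rule for the calls: active = gene knockdowns whose robust z-score for IL-1 alpha signal is at least 2 or at most -2, so actives lie on both sides; inactive = the rest.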 Some of the results follow.
# Experiment: Components of the Cytosolic LPS Sensing Pathway: Gene Identification via Genome-wide siRNA Screen;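 note: robust z of the log signal after scaling to non-targeting control siRNA wells of the plate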
# Details: RAW264.7 macrophages, IL-1a HTRF, actives lie on both sides, screened at 100 nM (by protocol), cells primed 5 h with Pam3CSK4 first
# Procedure, shortened: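 Supernatant IL-1a by HTRF from RAW264.7 cells primed with Pam3CSK4 (5 hours) and transfected with LipidA (24 hour) after 48h siRNA knockdown at 100 nM; cell viability checked with CellTiter-Glo.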
row,Sequence,z-score
1,CCAUGUCUUAGAAGAAGACTT against Dlc1,inactive: 1.99
2,GGCUCAAGUUACUUGCUAUTT against Fras1,inactive: 1.8
3,GCCAAAUCUGCGUGAAUUATT against Lrp8,inactive: -1.87
4,GGAGUUUCUACGUGUAUGCTT against Tpra1,inactive: -0.161
5,GGAAAAUAAGCUAAGGAAGTT against Peg12,inactive: -0.018
6,GCGACCUUAGACAUUUGCATT against Prkrip1,inactive: -0.652
7,GGAUGGACAUCCAAGCAGGTT against Fabp9,inactive: -1.97
8,GGAUCGUCUCCAAGUGGAUTT against Rhbdl2,inactive: -0.502
9,GGCUGGUCAAAAUUUGGAATT against Cdca2,inactive: -0.9
10,GCAUCCACCUCAACGAUAUTT against Dlg3,inactive: -1.33
11,GGUCUGAUACCUCAUUCCATT against Il22ra2,inactive: -1.21
12,GGAGAGGUGGUAUUGUUGGTT against Olfr1297,inactive: 0.29
13,CCCUGACAAUCUUUAUUUCTT against Olfr883,inactive: -0.784
14,GCCUUUGCACAGUUUGGACTT against BC002059,inactive: -1.13
15,CGUGUUCAGCGUAGAAACUTT against Ttll1,inactive: 0.283
16,CGAAAAAGACAGGCUUGGATT against Dapl1,inactive: 0.21
17,CGAAUGCUUGGAGAACAAUTT against Scube2,inactive: 0.992
18,GCACCAAACCAAUAUUAGUTT against Epb41l3,inactive: 1.13
19,CCCAUACUGUCACUUUAAGTT against H2bc8,active: -2.23
20,GGAGAUGACAGAUGACCUUTT against Glyat,inactive: -0.124
21,GCUCUGAUGUCAACCUUCCTT against Fam174c,active: -2.23
22,GGGAGGAACUUUGUAUAAUTT against Prl3a1,inactive: 0.217
23,GGUCUCAAAUCACUAGAGUTT against Lum,inactive: 0.32

# Single values from the entries so far.
# CGAAAAAGACAGGCUUGGATT against Dapl1 | z-score: inactive: 0.21
# GCCAAAUCUGCGUGAAUUATT against Lrp8 | z-score: inactive: -1.87
# CGAAUGCUUGGAGAACAAUTT against Scube2 | z-score: inactive: 0.992
# CCCUGACAAUCUUUAUUUCTT against Olfr883 | z-score: inactive: -0.784

# (cont.)

row,Sequence,z-score
1,GGAGCGUGUGGAAGAAAAATT against Nedd8,inactive: -0.0924
2,GGGAGUUAAACUUCUCUGCTT against Tlr13,inactive: -0.0637
3,GGAAAACUAGUGUUGCUAUTT against Ptbp2,inactive: 0.865
4,GGUAGUUGGGACGAUCAUATT against 3110070M22Rik,inactive: 0.00845
5,CCGGAGUCAGUAUCCAGAATT against Ndufaf4,inactive: -0.282
6,GCUUUCUGAAGUAGCAAAGTT against Nit2,inactive: 0.42
7,GGACGACCAUGAACUUCCCTT against Rmdn2,inactive: -0.111
8,GCAUAUGAUGGUCCUUACCTT against Cox6b1,inactive: 0.019
9,GCUGCACCAUGAAUGAGUCTT against Il4,inactive: 0.819
10,CCACUCACCCAGAUAGGUATT against AI413582,inactive: 0.489
11,GCUACGUGAAGCUAUAAACTT against 4930447C04Rik,inactive: 0.897
12,GGAAAAACUGCUAGAUCUATT against As3mt,inactive: 1.49
13,CCAUAGAACCGUCCUAAUUTT against Tbx3,inactive: -1.08
14,GCACCCGAACAUCAUUGCGTT against Map3k9,inactive: 1.6
15,GGAUCAGGCCCAACUUUAATT against Glra1,inactive: -1.26
16,GCCAGUGCUGGUUUGAAAUTT against Clip4,inactive: 1.67
17,GGAUGUCUGACUCAGGUCUTT against Olfr829,inactive: 0.0622
18,GGAUCUUCCCGUGAACAUCTT against Cndp1,inactive: -0.575
19,GCAGACAGCUUCUCACUAUTT against Tmem114,inactive: -0.431
20,GCGAGUGUUUCUCUUGGGATT against Trpm5,inactive: -0.303
21,GGAGAUGAAGUGGACAGACTT against Anapc13,inactive: 1.02
22,GGUGCCUAAUGGAUAAGAATT against Med13l,inactive: -0.784
23,GGAAUUUUACACUUUACCUTT against Klhl11,inactive: 1.74

row,Sequence,z-score
1,CCGCUUGUAUUCGACUUAUTT against Gm11487,inactive: -0.418
2,GGCCUCCAUAUCUAUCUAUTT against Wdr38,inactive: 0.308
3,GGUCUGGAUCUUGUGACCUTT against Tcstv1,inactive: -0.592
4,GGAGGAGAUAAAAUUUAACTT against Ift81,inactive: 0.657
5,GGUAUAUUCGGAAACCUAUTT against Abi1,inactive: -0.243
6,CCUUCAUGUGCAAGGUUGUTT against Ccr9,inactive: 0.801
7,GGAAGAAAAGUCUCAGAAATT against Swt1,inactive: -0.312
8,GCUACUGCACAAAGUUACGTT against Ankrd36,inactive: -0.0351
9,GCUAUUCUGGUGUCAAGACTT against Gbp2b,inactive: -0.548
10,CCUCCAAUCAGAAAGGUCGTT against Cmtr1,inactive: -0.651
11,GCUUUCUUUAUAUUGACUGTT against Olfr692,inactive: 0.0698
12,GGGUGUGACCGAAGCUCAUTT against Gatd3a,inactive: -0.581
13,GCUUCUAUUUUGGAUGAUGTT against Skint10,inactive: -1.2
14,GGCAUGGACCAAAUAAAUATT against Snap23,inactive: -0.562
15,GGUGUCACAUUCUUUUUUUTT against Pcolce2,inactive: 0.98
16,GCGAGUUGAUGAGCUCUAGTT against Sult1b1,inactive: 0.702
17,GCAUUGUUUUUCUAUUCAGTT against Cfhr1,inactive: 0.531
18,GGCGAAUGCAUAAACUAAATT against Abat,inactive: 0.744
19,CGACCUGACCUUUUUUUCCTT against Ipmk,inactive: -0.465
20,GCAAGUCGUAAGCCUCAGGTT against Mrps10,inactive: 0.533
21,GCCGGAAUGAAUACAUGCGTT against Elk1,inactive: -1.54
22,GGAUCAAGUCCAAUCUAAATT against Cdh5,inactive: -0.193
